{
  "source": "patent US11304968B2",
  "about": "“Pharmaceutical compositions comprising a hydroxyethylquercetin glucuronide” (JANSSEN PHARMACEUTICA NV, priority 2018, dated 2022)",
  "origin": "cited, not measured here",
  "tested_on": "circulating plasma levels of ACTH and corticosterone",
  "settings": "rats",
  "note": "Some of these results come from one statement about several compounds together. Some compounds share one range, which may span the group rather than tell each member.",
  "data": [
    {"substance": "quercetin-3-glucuronide [miquelianin]", "values": [
      {"measurement": "downregulation of circulating plasma levels of ACTH and corticosterone", "value": "40-70%"}
    ]}
  ]
}
